{"source": "patent US5702914", "about": "“Use of reporter genes for retinoid receptor screening assays having novel retinoid-associated response elements” (The Salk Institute for Biological Studies)", "key": {"[1]": {"system": "RIP (retinoid-inducible protein)", "assay": "EMSA", "details": "nearly 100-fold induced by retinoic acid in P19 nuclear extract; absent in NT2/D1 extract; protein in an extract; protein details: nuclear extract of retinoic acid-treated P19 cells"}, "[2]": {"system": "RIP (retinoid-inducible protein)", "assay": "competition with a labelled probe", "details": "mutant does not compete for RIP binding in gel retardation; protein in an extract; protein details: nuclear extract of retinoic acid-treated P19 cells; variant of URE-wt (RIP-binding-site)"}, "[3]": {"system": "RAP (retinoid activating protein)", "assay": "EMSA", "details": "specific binding; activity absent in CV-1 extract; exact 90 bp range within SEQ ID NO:2 not stated; protein in an extract; protein details: NT2/D1 cell nuclear extract"}}, "note": "For at least one entry, the source does not settle the construct or the ends of the probe. At least one result comes from cells or an extract, where the contact may be indirect. For part of these data: A negative result means that nothing was seen under these conditions.", "data": [{"sequence": "AGCTACACCCTGACAGGTTACAAATA (double strand) [URE-wt (RIP-binding-site)]", "values": [{"measurement": "binding result", "setting": "[1]", "value": "binds"}]}, {"sequence": "CAGGCAGACACCCTGACAGGTTACAAATGAGCGTGG (double strand) [URE mut]", "values": [{"measurement": "binding result", "setting": "[2]", "value": "no binding"}]}, {"sequence": "GGCGGGCGGAGGAGGCCGAGGTAACCTGGGATCCCGGGCCTGACCTTTTTACCTCGAAGCGCCTCTGGGCTTTCCAAACAAGCCGACAGCGCGCCCGCGGGGGCAGCTATTGTCTCCGGGCCGGTCCCACTGGCAAACCTTTGGTC (double strand) [90 bp RAP-binding-site fragment]", "values": [{"measurement": "binding result", "setting": "[3]", "value": "binds"}]}]}
